This is one part of the list.

By UniProt entry, the sequences of proteins in these tests, tags left out.
UniProt Q0JBA9, entry or part of it: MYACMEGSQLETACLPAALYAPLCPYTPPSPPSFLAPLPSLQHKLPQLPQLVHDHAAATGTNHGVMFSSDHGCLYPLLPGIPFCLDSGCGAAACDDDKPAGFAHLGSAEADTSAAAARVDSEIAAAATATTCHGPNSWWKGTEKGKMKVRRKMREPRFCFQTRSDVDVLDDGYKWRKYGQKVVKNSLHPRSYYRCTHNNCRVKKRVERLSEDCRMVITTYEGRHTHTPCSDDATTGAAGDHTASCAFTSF

This assay deals with OsWRKY34 (Oryza sativa, UniProt Q0JBA9 1-250). The experiment in a line: protein-binding microarray (RPBM); PBS, 2% BSA, 51.3 ng/ul salmon testes DNA, 50 uM zinc acetate, 200 nM TF, 25 C, 1 h; high values mean tight binding. As to conditions: protein: recombinant; tags: N-terminal polyhistidine and DsRed monomer fusion (pET32a); label: CyDye5-dUTP incorporated in the synthesized complementary strand; 3' TTTTT single-stranded linker to array surface; dsDNA, one strand shown. The method in brief:
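In PBS with 2% BSA, salmon testes DNA and 50 µM zinc acetate, 200 nM protein was incubated on a custom Agilent array at 25 °C for 1 h and then washed off. The array had been made double-stranded by primer extension with Cy5-dUTP and blocked with 2% BSA. The proteins were transcription factors fused N-terminally to polyhistidine and DsRed, expressed in E. coli BL21-CodonPlus and purified on Ni–NTA. The binding signal is per-feature fluorescence intensity (arbitrary units) from an Axon 4000B scanner.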
In the case of “GTTTTAGGGTATTTTCTGACCGTTTTCATCCGTTATCGACCGGAGTCACCTAGTGCAG”, the binding signal was 10900 fluorescence intensity (a.u.).

In the case of “CAGAAGCAACTCTCCCGTGTTAAACTAATTATTCTGTTGTCGGAGTCACCTAGTGCAG”, the binding signal is 9440 fluorescence intensity (a.u.).

Consider “TGATCTTTTTAGTTTTACGTTTTTTCCTTTCCACAACAAACGGAGTCACCTAGTGCAG”, for which the binding signal was 9200 fluorescence intensity (a.u.).

Turning to “ATTGTTTTTGTGTTACCCAATATTAAATCTGTTGTAGCCTCGGAGTCACCTAGTGCAG”, the binding signal is 10600 fluorescence intensity (a.u.).

Take “GTTTATTGTAGCACCACATTGTCAATCATGGAGTAATTAGCGGAGTCACCTAGTGCAG”: the binding signal was 8720 fluorescence intensity (a.u.).

“ATAATAACCTAGTATGTTCTTCTCGTGTTTTATGCTTAACCGGAGTCACCTAGTGCAG”: the binding signal is 9660 fluorescence intensity (a.u.).

For the sequence “TAGTATACATACGGCTACCTGCCTATCTGTATCACACCACCGGAGTCACCTAGTGCAG”, the binding signal is 8290 fluorescence intensity (a.u.).

For the sequence “TCGCCGTCCGCCTCATCGAGCTTGATCGCTGCTACAACACCGGAGTCACCTAGTGCAG”, the binding signal is 9180 fluorescence intensity (a.u.).

Regarding “AGATTAGGCCATCACCAATGCGTACCTTTGACCCGTGCCCCGGAGTCACCTAGTGCAG”, the binding signal was 8160 fluorescence intensity (a.u.).

On to “TGTCGTTGGGAATTTTGTTGTGATGGAAGACTCGCTGGTTCGGAGTCACCTAGTGCAG”, for which the binding signal is 9670 fluorescence intensity (a.u.).

In the case of “CAACTTTTTTTCAAACTTCCAACTTTCTTCAAACTTTCAACGGAGTCACCTAGTGCAG”, the binding signal was 8060 fluorescence intensity (a.u.).

As to “AAGTAATTCAATCGAGCGCAATCGTTAACAGTAATTCTTTCGGAGTCACCTAGTGCAG”, the binding signal was 9350 fluorescence intensity (a.u.).

Turning to “GTACACTTGTATTTTTGCCACGCTGTTTCTTATTCATCGTCGGAGTCACCTAGTGCAG”, the binding signal is 10300 fluorescence intensity (a.u.).

Turning to “CCTCTATTTCATATTATACGTCGTTGACTTTTTTCTTAGTCGGAGTCACCTAGTGCAG”, the binding signal was 17400 fluorescence intensity (a.u.).

Consider “CTCCCCTGTCGCCCGCCGCCGCATTCCCACCTTCCGTCGTCGGAGTCACCTAGTGCAG”, for which the binding signal is 8090 fluorescence intensity (a.u.).

In the case of “TTTCCTGTTGCACACGCATGGCCATTTTCAATTGTTCAAACGGAGTCACCTAGTGCAG”, the binding signal was 14900 fluorescence intensity (a.u.).

For “GAGTATTTTCTCCTTTTCTGTTGACCCTGCCTACTCCTACCGGAGTCACCTAGTGCAG”, the binding signal is 15900 fluorescence intensity (a.u.).

For “ATTTATTAGTTTGATCCCTCTTTTATCACCATGTATTGCCCGGAGTCACCTAGTGCAG”, the binding signal was 8570 fluorescence intensity (a.u.).

Consider “TCCCGTCCCGTTCCGCTCCAGCGCCTGCGCCGATCTCCATCGGAGTCACCTAGTGCAG”, for which the binding signal is 9620 fluorescence intensity (a.u.).

For “AGGTGGGTGGTGGTGGTGCGAGGAGAGGGCGTTGATGAGGCGGAGTCACCTAGTGCAG”, the binding signal was 12000 fluorescence intensity (a.u.).

Turning to “AATCTGACCTCTTTTTTCTTGCCATTGAAATGTACATGGACGGAGTCACCTAGTGCAG”, the binding signal was 9150 fluorescence intensity (a.u.).

Consider “TCTCTCTTCTGCCATTGTTCTTGCATTTCATCCGGTTCTGCGGAGTCACCTAGTGCAG”, for which the binding signal is 8700 fluorescence intensity (a.u.).

“TTCGAAGATGCTCATAGGGGTAGGGTTTGCGTGCGTGTGTCGGAGTCACCTAGTGCAG”: the binding signal is 11700 fluorescence intensity (a.u.).

Regarding “CCCATGTTTTTTTTTCATATTTTGCAATCTTCGGTTTAAACGGAGTCACCTAGTGCAG”, the binding signal was 8520 fluorescence intensity (a.u.).

Regarding “TTTGGCTCCAGTTGACGATCTGATTTCTCACTTTCTTCTGCGGAGTCACCTAGTGCAG”, the binding signal is 11400 fluorescence intensity (a.u.).

Take “GCCACCAGCCAATCATGCGCCGCTGCCGCCGCCCTGTCGCCGGAGTCACCTAGTGCAG”: the binding signal is 8100 fluorescence intensity (a.u.).

“AGATCATGCTTCTTGTATTTTAGTTGTGGTGGACAAGTTTCGGAGTCACCTAGTGCAG”: the binding signal was 8330 fluorescence intensity (a.u.).

As for “CTCTATTCTTCAGTTGTATATTCGGAACAGTGAACTTCCGCGGAGTCACCTAGTGCAG”, the binding signal is 8120 fluorescence intensity (a.u.).

On to “AACCCGAGTAGGTAACTTTTTCGCGCAGGCCCCTCGGAATCGGAGTCACCTAGTGCAG”, for which the binding signal was 9400 fluorescence intensity (a.u.).

With “GCCTAAACAGGGCCTAAACCTCGATGCGTTTTTATCATTTCGGAGTCACCTAGTGCAG”, the binding signal was 9360 fluorescence intensity (a.u.).

Consider “TCCGCGCTACTGCCCTAATCCCGCCGCCGCAGCCGCAGCCCGGAGTCACCTAGTGCAG”, for which the binding signal is 10100 fluorescence intensity (a.u.).

With “ATAATCATCTTTTAGCTGCTGCATGGGGTTTAGGTGTGGACGGAGTCACCTAGTGCAG”, the binding signal was 8040 fluorescence intensity (a.u.).

In the case of “CCAACCCAACCCATCCCCTACCTCGCCATCGATGGCGCTGCGGAGTCACCTAGTGCAG”, the binding signal was 9030 fluorescence intensity (a.u.).

On to “TTGGGTGCGCGTCGATTGATTCATTTGATTGGTAGGTATTCGGAGTCACCTAGTGCAG”, for which the binding signal is 8410 fluorescence intensity (a.u.).

“AATCCTTCTTTCATTCTTTGTCTTGATTCTTGAAGCATCTCGGAGTCACCTAGTGCAG”: the binding signal is 10800 fluorescence intensity (a.u.).

Regarding “TGCTATATATAAGGGACATGCTTTCCGTCGCGTCTCGTCTCGGAGTCACCTAGTGCAG”, the binding signal was 9200 fluorescence intensity (a.u.).

In the case of “TTACTTGCCTGTTTGTACAGTGATATATCACATGTTAATACGGAGTCACCTAGTGCAG”, the binding signal is 9240 fluorescence intensity (a.u.).

Regarding “TTTTTATATGTTTGGTTCTTATGAGTTCCTAAGTGTGAAACGGAGTCACCTAGTGCAG”, the binding signal was 8230 fluorescence intensity (a.u.).

For “CATGATTTTCCCTTTCAATTCGGTTTTAATTAATTCGTTGCGGAGTCACCTAGTGCAG”, the binding signal is 9330 fluorescence intensity (a.u.).

Regarding “TTTGTCTGTTAGTGATGCCAACAATGCCATCCATCGATCTCGGAGTCACCTAGTGCAG”, the binding signal was 9110 fluorescence intensity (a.u.).

For “GACCTCACCCGGTTTTCCCTCGCACCGTTACAGCGATTCGCGGAGTCACCTAGTGCAG”, the binding signal was 8430 fluorescence intensity (a.u.).

“CACACGCTCTCTGCTAGTCTGATCGCTCTCGCCATCGCACCGGAGTCACCTAGTGCAG”: the binding signal is 9640 fluorescence intensity (a.u.).

(Values after PMC7819943, “Rice protein-binding microarrays: a tool to detect cis-acting elements near promoter regions in rice”.)
